Measured values as given in the supplement of paper PMC11150407.
The campaign covered roughly 3,000 compounds. About 45 (2%) showed an effect of 50% or more. This is one part of the list.

These compounds were tested on MOLM1 and UCSD/AML1 (averaged) (assay: cell viability relative to DMSO control (POC); higher = less growth inhibition). Settings: 1 µM; 72 h.
Description: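 Primary viability screen in the 3q26 EVI1-high AML cell lines MOLM1 and UCSD/AML1, compounds at 1 uM for 72 h. ATP CellTiter-Glo read-out given as percent viable over DMSO control (POC), averaged over duplicates. This mapping covers the TimTec NDL-3000 natural derivative library, whose compounds are identified by TimTec catalogue codes (ST...).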

| Structure (SMILES) | cell viability |
| --- | --- |
| COc1cc([C@H]2OC[C@@H]3C(c4ccc(OC5OC(COC6OC(C)C(O)C(O)C6O)C(O)C(O)C5O)c(OC)c4)OC[C@H]23)ccc1O (stereo partly specified) | 109% |
| COc1cccc(C2NC(C)(C(=O)O)C3C(=O)N(C)C(=O)C23)c1O (stereo unspecified) | 88.1% |
| COc1cc(OC)cc(C(=O)NCCOc2ccccc2)c1 | 94.8% |
| CC(c1ccccc1)C(N)C(=O)O (stereo unspecified) | 92.6% |
| Cn1c(=O)c2c(nc(SCC(=O)Nc3ccc(OC(F)(F)F)cc3)n2Cc2ccccc2F)n(C)c1=O | 92.8% |
| CCN(CC)C(=O)c1ccc(OCCNC(C)=O)c(OC)c1 | 106% |
| CC1CCN(C(=O)c2cc(=O)n(CC(=O)Nc3ccc(F)c(Cl)c3)c3ccccc23)CC1 | 105% |
| COc1ccc(C2C3CCCCC3(O)CCN2CC(=O)Nc2ccc(Cl)cc2Cl)cc1 (stereo unspecified) | 103% |
| CCc1ccccc1NC(=O)CSc1nc2c(=O)[nH]cnc2n1C | 89.3% |
| CCOc1ccc(-c2oc3cc(C)ccc3c(=O)c2O)cc1 | 106% |
| O=C(O)C(=O)Cc1ccc([N+](=O)[O-])cc1 | 92.6% |
| COc1ccc(NC(=O)CSc2nc3ncnc(N)c3[nH]2)cc1 | 111% |
| COc1ccc2c(c1OC)C(=O)N1C(C(=O)O)Cc3c([nH]c4ccccc34)C21 (stereo unspecified) | 87% |
| CC(=O)n1c(=O)oc2ccccc21 | 90.1% |
| C/C(=N\NC(=O)c1nonc1N)c1c[nH]c2ccccc12 | 97.4% |
| COc1cc(C(=O)Nc2ccc(C(=O)c3cccs3)cc2)cc(OC)c1OC | 99.7% |
| O=C1CC(n2c(=O)oc3ccccc32)C2COC1O2 (stereo unspecified) | 14.7% |
| COc1cc2c(c(NC(=O)c3ccoc3C)c1OC)C(=O)OC2 | 103% |
| COc1cc2c(c(NC(=O)CCC3CCCCC3)c1OC)C(=O)OC2 | 97.7% |
| COc1ccc(Br)cc1/C=C/C(=O)O | 95.6% |
| COc1ccc2oc(=O)cc(CN3CCN(Cc4ccc(C)cc4)CC3)c2c1 | 86.3% |
| COC(=O)C1CC23CCCN4CCC5(c6ccccc6N(C(C)=O)C15CC2)C43 (stereo unspecified) | 89.7% |

A second format for some results above:
Structure (SMILES) | cell viability
CC(c1ccccc1)C(N)C(=O)O (stereo unspecified) | 92.6%
COc1ccc(NC(=O)CSc2nc3ncnc(N)c3[nH]2)cc1 | 111%
COC(=O)C1CC23CCCN4CCC5(c6ccccc6N(C(C)=O)C15CC2)C43 (stereo unspecified) | 89.7%

Next part:

| Structure (SMILES) | cell viability |
| --- | --- |
| COc1ccc(C(=O)Nc2ccc(Br)c(C)c2)cc1OC | 84.6% |
| COc1cc2c(cc1OC)C(c1ccc(N(C)C)cc1)NCC2 (stereo unspecified) | 81.2% |
| CCOc1ccc2oc(=O)cc(CN3CCN(Cc4nc(-c5ccc(Cl)cc5)oc4C)CC3)c2c1 | 93% |
| CCC(Sc1nc2c(=O)[nH]cnc2n1C)C(=O)Nc1cccc(Cl)c1 (stereo unspecified) | 97.9% |
| NC(CCSCC(N)C(=O)O)C(=O)O (stereo unspecified) | 99.1% |
| O=C(/C=C/c1ccccc1Cl)c1ccc(OC(=O)c2ccc([N+](=O)[O-])cc2)cc1 | 85.3% |
| O=C(N/N=C/c1ccc(/C=N/NC(=O)c2cc(O)cc(O)c2)cc1)c1cc(O)cc(O)c1 | 93.6% |
| CCN(CC)C(=O)c1ccc(OCC(=O)N2CCc3ccccc32)c(OC)c1 | 101% |
| CCCCN(C(=O)c1cc(OC)c(OC)c(OC)c1)C1=CC2CCC(C1)N2C (stereo unspecified) | 105% |
| COc1ccc(C(=O)Nc2nc(-c3ccc4c(c3)OCCO4)cs2)cc1OC | 101% |
| CCSCCn1c(C)c(C(=O)OCc2ccccc2)c2cc(O)c3ccccc3c21 | 90.3% |
| COc1ccc2[nH]c(C)c(CCNC(=O)c3cc([N+](=O)[O-])ccc3Cl)c2c1 | 101% |
| C#CCOC(=O)C1(C)CCC2(C)CCC3(C)C(=CC(=O)C4C5(C)CCC(OC(C)=O)C(C)(C)C5CCC43C)C2C1 (stereo unspecified) | 102% |
| Cc1cc(NC(=O)c2cc3ccccc3o2)ccc1-c1cc2ccccc2oc1=O | 86.6% |
| CC(C)Cc1ccc(C(C)C(=O)NCCc2c[nH]c3ccccc23)cc1 (stereo unspecified) | 88.1% |
| O=C(c1nc(-c2ccccc2)n(-c2ccccc2)n1)N1CCc2ccccc2C1 | 99.2% |
| CC1(C)CC(=O)C2=C(C1)N(c1ccccc1)C1=C(C(=O)CC(C)(C)C1)C2c1ccc(O)cc1 | 106% |
| COc1cc(Cc2nccc3cc(OC)c(OC)cc23)c(/C(C)=N/O)cc1OC | 96.7% |
| CC1CCc2nc3sc(C(=O)N4CCC[C@H]4C(=O)O)c(N)c3cc2C1 (stereo partly specified) | 107% |
| COc1cc(CN(C)S(=O)(=O)c2cc(N3CCCC3=O)ccc2C)cc(OC)c1OC | 89.8% |
| COc1cc(/C=N/NC(=O)CCC(=O)Nc2ccc(C)c(C)c2)cc(OC)c1OC | 104% |
| COc1cccc(NC(=O)c2ccc3c(c2)OCO3)c1 | 81.2% |

| Structure (SMILES) | cell viability |
| --- | --- |
| Cc1ccccc1-c1cc(=O)c2cc(Br)ccc2o1 | 106% |
| COc1ccc(C2=NOC(=O)/C2=C\c2cccc([N+](=O)[O-])c2O)cc1OC | 97.4% |
| CCOC(=O)C(Cc1c[nH]c2ccccc12)NS(=O)(=O)c1ccc(C)cc1 (stereo unspecified) | 91.9% |
| CCOC(=O)C1=C(N)Oc2c(oc(CO)cc2=O)C1c1ccc(Cl)cc1Cl (stereo unspecified) | 107% |
| O=C(c1cc(=O)[nH]c2ccccc12)N1CCc2ccccc2C1 | 98.5% |
| Cc1ccc(NC(=O)CSc2nc3c(=O)[nH]cnc3n2-c2ccccc2)c(C)c1 | 99.2% |
| C=C(C)C1CCC(C)CC1OC(C)=O (stereo unspecified) | 96.6% |
| COc1ccc(/C=C/C(=O)/C=C/c2ccc(OC)cc2OC)c(OC)c1 | 92% |
| CC(=O)/C=C(\C)NC(C)C(=O)O (stereo unspecified) | 102% |
| NC(=O)Cc1cc2ccccc2n1Cc1ccccc1 | 97.6% |
| Cc1cc(=O)oc2cc(OCc3ccccc3F)ccc12 | 98.2% |
| CCOC(=O)c1c(C)n(CCOc2cccc(Cl)c2Cl)c2ccc(O)cc12 | 91.3% |
| CC(=O)C1=C(O)C(=O)N(CCc2c[nH]c3ccccc23)C1c1ccc(Cl)cc1 (stereo unspecified) | 98.8% |
| O=c1oc2ccccc2cc1-c1ccccc1Cl | 110% |
| COc1ccc(C=O)cc1CSc1nc2ccccc2[nH]1 | 92.5% |
| O=C1c2c(O)ccc([N+](=O)[O-])c2C(=O)c2c([N+](=O)[O-])ccc(O)c21 | 79.6% |
| COc1ccc(S(=O)(=O)N2Cc3ccccc3CC2C(=O)Nc2ccc(C)cc2)cc1OC (stereo unspecified) | 96.3% |
| Cc1cc2c(C(C)C)c(O)c(O)c(C=NCCOc3ccc(C4CCCCC4)cc3)c2c(O)c1-c1c(C)cc2c(C(C)C)c(O)c(O)c(C=NCCOc3ccc(C4CCCCC4)cc3)c2c1O | 98.1% |
| COc1cc(C2CC(=O)Nc3c2ccc2ccccc32)cc(OC)c1OC (stereo unspecified) | 50.5% |
| Cc1ccc(-n2c(SCc3ccccc3F)nc3c(=O)[nH]cnc32)cc1 | 95.2% |
| N[C@H](CC1CCCCC1)C(=O)O | 95% |
| COc1ccc(C2C3=C(CC(C)CC3=O)Nc3ccccc3N2C(C)=O)cc1 (stereo unspecified) | 99.7% |
